Test results reported in PMC11963488.
These are yes or no findings as the source states them, for the method shown. For part of these data: In cells and extracts the contact can be indirect. Some results given as binding are weak or reduced against the parent protein; the word gives no strength. Tags and fused reporters may be left off the sequences shown.

The chains behind the UniProt entries cited, without tags or fusion partners.
UniProt Q8L9K1: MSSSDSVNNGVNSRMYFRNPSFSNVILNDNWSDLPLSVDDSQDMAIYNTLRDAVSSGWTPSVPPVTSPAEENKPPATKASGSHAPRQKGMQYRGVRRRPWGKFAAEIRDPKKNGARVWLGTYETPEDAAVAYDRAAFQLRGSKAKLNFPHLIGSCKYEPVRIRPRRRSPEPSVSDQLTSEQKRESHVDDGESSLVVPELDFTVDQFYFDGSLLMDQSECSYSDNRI

T1: biotinylated recombinant HDA6 protein (HDA6-6xHis-bls) (Arabidopsis thaliana) (UniProt Q9FML2)
T1 sequence (chain, biotin (at the biotin ligation site)): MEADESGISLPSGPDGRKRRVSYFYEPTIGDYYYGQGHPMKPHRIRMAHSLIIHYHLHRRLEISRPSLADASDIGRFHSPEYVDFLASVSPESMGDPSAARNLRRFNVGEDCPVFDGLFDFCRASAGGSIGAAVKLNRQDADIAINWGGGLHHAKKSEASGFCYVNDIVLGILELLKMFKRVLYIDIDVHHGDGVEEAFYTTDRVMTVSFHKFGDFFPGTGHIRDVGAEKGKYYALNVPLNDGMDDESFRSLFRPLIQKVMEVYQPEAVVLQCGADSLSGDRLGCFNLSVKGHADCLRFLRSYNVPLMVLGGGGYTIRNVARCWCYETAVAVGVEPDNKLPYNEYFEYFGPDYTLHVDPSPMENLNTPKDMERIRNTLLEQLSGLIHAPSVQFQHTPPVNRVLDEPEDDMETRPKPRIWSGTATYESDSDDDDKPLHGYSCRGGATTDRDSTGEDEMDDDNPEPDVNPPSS

T2: HDA6 fused to the N-terminal fragment of Venus (Arabidopsis thaliana) (UniProt Q9FML2)
T2 sequence: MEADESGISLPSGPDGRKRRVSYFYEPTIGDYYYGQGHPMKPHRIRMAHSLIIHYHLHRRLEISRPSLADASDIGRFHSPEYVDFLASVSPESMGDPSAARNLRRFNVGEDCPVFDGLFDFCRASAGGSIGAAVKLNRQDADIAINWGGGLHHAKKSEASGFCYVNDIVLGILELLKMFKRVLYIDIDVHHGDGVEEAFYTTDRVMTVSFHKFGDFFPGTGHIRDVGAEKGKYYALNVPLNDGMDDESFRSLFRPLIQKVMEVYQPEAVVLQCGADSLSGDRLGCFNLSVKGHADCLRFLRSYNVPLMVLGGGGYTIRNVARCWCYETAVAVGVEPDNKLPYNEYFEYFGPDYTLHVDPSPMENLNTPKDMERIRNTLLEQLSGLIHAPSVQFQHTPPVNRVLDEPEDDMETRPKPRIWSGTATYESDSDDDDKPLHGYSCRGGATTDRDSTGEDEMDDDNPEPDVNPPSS

B1: FLAG-conjugated TPL (protein, UniProt Q94AI7 1-1131)
chain: MSSLSRELVFLILQFLDEEKFKETVHKLEQESGFFFNMKYFEDEVHNGNWDEVEKYLSGFTKVDDNRYSMKIFFEIRKQKYLEALDKHDRPKAVDILVKDLKVFSTFNEELFKEITQLLTLENFRENEQLSKYGDTKSARAIMLVELKKLIEANPLFRDKLQFPTLRNSRLRTLINQSLNWQHQLCKNPRPNPDIKTLFVDHSCGPPNGARAPSPVNNPLLGGIPKAGGFPPLGAHGPFQPTASPVPTPLAGWMSSPSSVPHPAVSAGAIALGGPSIPAALKHPRTPPTNASLDYPSADSEHVSKRTRPMGISDEVNLGVNMLPMSFSGQAHGHSPAFKAPDDLPKTVARTLSQGSSPMSMDFHPIKQTLLLVGTNVGDIGLWEVGSRERLVQKTFKVWDLSKCSMPLQAALVKEPVVSVNRVIWSPDGSLFGVAYSRHIVQLYSYHGGEDMRQHLEIDAHVGGVNDISFSTPNKQLCVITCGDDKTIKVWDAATGVKRHTFEGHEAPVYSVCPHYKENIQFIFSTALDGKIKAWLYDNMGSRVDYDAPGRWCTTMAYSADGTRLFSCGTSKDGESFIVEWNESEGAVKRTYQGFHKRSLGVVQFDTTKNRYLAAGDDFSIKFWDMDAVQLLTAIDGDGGLQASPRIRFNKEGSLLAVSGNENVIKIMANSDGLRLLHTFENISSESSKPAINSIAAAAAAAATSAGHADRSANVVSIQGMNGDSRNMVDVKPVITEESNDKSKIWKLTEVSEPSQCRSLRLPENLRVAKISRLIFTNSGNAILALASNAIHLLWKWQRNERNATGKATASLPPQQWQPASGILMTNDVAETNPEEAVPCFALSKNDSYVMSASGGKISLFNMMTFKTMATFMPPPPAATFLAFHPQDNNIIAIGMDDSTIQIYNVRVDEVKSKLKGHSKRITGLAFSNVLNVLVSSGADAQLCVWNTDGWEKQRSKVLPLPQGRPNSAPSDTRVQFHQDQAHFLVVHETQLAIYETTKLECMKQWAVRESLAPITHATFSCDSQLVYASFMDATVCVFSSANLRLRCRVNPSAYLPASLSNSNVHPLVIAAHPQEPNMFAVGLSDGGVHIFEPLESEGKWGVAPPAENGSASGAPTAPSVGASASDQPQR
B2: TPL fused to the C-terminal fragment of Venus (protein, UniProt Q94AI7 1-1131)
chain: MSSLSRELVFLILQFLDEEKFKETVHKLEQESGFFFNMKYFEDEVHNGNWDEVEKYLSGFTKVDDNRYSMKIFFEIRKQKYLEALDKHDRPKAVDILVKDLKVFSTFNEELFKEITQLLTLENFRENEQLSKYGDTKSARAIMLVELKKLIEANPLFRDKLQFPTLRNSRLRTLINQSLNWQHQLCKNPRPNPDIKTLFVDHSCGPPNGARAPSPVNNPLLGGIPKAGGFPPLGAHGPFQPTASPVPTPLAGWMSSPSSVPHPAVSAGAIALGGPSIPAALKHPRTPPTNASLDYPSADSEHVSKRTRPMGISDEVNLGVNMLPMSFSGQAHGHSPAFKAPDDLPKTVARTLSQGSSPMSMDFHPIKQTLLLVGTNVGDIGLWEVGSRERLVQKTFKVWDLSKCSMPLQAALVKEPVVSVNRVIWSPDGSLFGVAYSRHIVQLYSYHGGEDMRQHLEIDAHVGGVNDISFSTPNKQLCVITCGDDKTIKVWDAATGVKRHTFEGHEAPVYSVCPHYKENIQFIFSTALDGKIKAWLYDNMGSRVDYDAPGRWCTTMAYSADGTRLFSCGTSKDGESFIVEWNESEGAVKRTYQGFHKRSLGVVQFDTTKNRYLAAGDDFSIKFWDMDAVQLLTAIDGDGGLQASPRIRFNKEGSLLAVSGNENVIKIMANSDGLRLLHTFENISSESSKPAINSIAAAAAAAATSAGHADRSANVVSIQGMNGDSRNMVDVKPVITEESNDKSKIWKLTEVSEPSQCRSLRLPENLRVAKISRLIFTNSGNAILALASNAIHLLWKWQRNERNATGKATASLPPQQWQPASGILMTNDVAETNPEEAVPCFALSKNDSYVMSASGGKISLFNMMTFKTMATFMPPPPAATFLAFHPQDNNIIAIGMDDSTIQIYNVRVDEVKSKLKGHSKRITGLAFSNVLNVLVSSGADAQLCVWNTDGWEKQRSKVLPLPQGRPNSAPSDTRVQFHQDQAHFLVVHETQLAIYETTKLECMKQWAVRESLAPITHATFSCDSQLVYASFMDATVCVFSSANLRLRCRVNPSAYLPASLSNSNVHPLVIAAHPQEPNMFAVGLSDGGVHIFEPLESEGKWGVAPPAENGSASGAPTAPSVGASASDQPQR

Assays:
[1] = molecular target: T1, biotinylated recombinant HDA6 protein (HDA6-6xHis-bls) (Arabidopsis thaliana); test: AlphaScreen or HTRF; in vitro; biotinylated HDA6 and FLAG-conjugated TPL/TPR made by cell-free protein synthesis; luminescence compared to FLAG-GFP control; method after Yano et al. 2016
[2] = molecular target: ERF13 fused to the N-terminal fragment of Venus (Arabidopsis thaliana) (UniProt Q8L9K1); test: split reporter; BiFC with nVenus and cVenus fusions co-expressed in N. benthamiana leaf cells by agroinfiltration, 48 h at 24 °C, fluorescence microscopy, DAPI for nuclei
[3] = molecular target: T2, HDA6 fused to the N-terminal fragment of Venus (Arabidopsis thaliana); test: as above

Row | Binder | binding [1] | binding [2] | binding [3]
1 | B1 | binds | – | –
2 | B2 | – | binds | binds
